The record followed here is paper PMC4915166.

These are yes or no findings as the source states them, for the method shown. For some of these results: In cells and extracts the contact can be indirect. Some entries that bind do so weakly or less than the wild type.

For assay [1], the target named is gp91^phox, the catalytic subunit of NADPH oxidase (Nox2) (mouse (endogenous in mouse microglia)) (UniProt Q61093). Kind of assay: confocal microscopy of FITC-labelled peptide on cells; FITC-labeled peptide incubated with WT or gp91phox-/- mouse microglia (legend: on ice for 30 min; methods: cells fixed, permeabilised and stained for gp91phox beforehand); only the binder purified.

The target is the same in assay [2]. Kind of assay: co-IP; Flag-fused synthetic peptide mixed with WT mouse microglial (or mixed glial) lysate in a cold room overnight; goat anti-gp91phox polyclonal antibody or control IgG on protein G magnetic beads, RT 30 min; blots for Flag, gp91phox, tubulin; gp91phox-/- lysate as control; only the binder purified.

For the substance “FITC-labeled A19-A30 α-Syn peptide (from UniProt P37840 19-30)”, the binding entry in assay [1] is given as “no binding”.
For “FITC-labeled A29-V40 α-Syn peptide (from UniProt P37840 29-40)”, the binding result in assay [1] was “binds”.
Regarding “Flag-tagged A19-A30 α-Syn control peptide (WT) (from UniProt P37840 19-30)”, in assay [2], the binding entry is “no binding”.
Still for that read-out and setting: next, “Flag-tagged A29-V40 α-Syn peptide (WT) (from UniProt P37840 29-40)”: “binds”.
